Data on four molecules can be found in patent US20170145063A1.

Sequences of proteins named here, by UniProt entry; tags and fusion partners are left off. Residues count along the entry.
epiregulin (extracellular domain) (O14944, residues 60-119): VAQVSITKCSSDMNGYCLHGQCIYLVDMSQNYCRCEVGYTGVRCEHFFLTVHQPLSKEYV
epiregulin on human colorectal cancer-derived DLD1 cells (O14944, residues 63-108): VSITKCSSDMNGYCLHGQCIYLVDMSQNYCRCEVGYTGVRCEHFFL

These are yes or no findings as the source states them, for the method shown. Some binding calls cover weakened binding; strength is not graded here.

The target of assay [1] is epiregulin on human colorectal cancer-derived DLD1 cells (human) (UniProt O14944). Put plainly: FACS on DLD1 cells having epiregulin expressed.
Assay [2] shares this target. Put plainly: cell staining of DLD1 cells, IN Cell Analyzer 6000 imaging.
Assay [3] deals with epiregulin (extracellular domain) (UniProt O14944). Put plainly: complex formation, gel filtration before crystallisation. Background: Size exclusion chromatography separates by hydrodynamic size, large species first.

B1: anti-epiregulin scFv-V2122-FITC (scFv)
scFv: QVQLQQSGAEVKKPGASVKVSCKASGFNIKDTYMHWVRQAPEQGLEWMGRIDPLNDKTKYDPKFQGRVTITADTSTNTAYLELSSLTSEDTAVYYCARGGGDPVFVYWGQGTLVTVSASSGGGGSGGGGSGGGGSGGGGSGGDIQMTQSPSSLSASVGDRVTITCKASQDINKYLAWYQHKPGQAPRLLIHYTSTLHPGIPSRFSGSGSGTDFTFSISSLQPEDIATYYCLQYDNLRTFGGGTKVEIKRTSGGGGSGGGGAEAGITGTWSDQLGDTFIVTAGADGALTGTYENAVGGAESRYVLTGRYDSAPATDGSGTALGWTVAWKNNSKNAHSATTWSGQYVGGADAKINTQWLLTSGTTNANAWKSTLVGHDTFTKVKPSAASHHHHHH
modifications: FITC label (Fluorescein Labeling Kit-NH2); sites not stated
B1: the binding result in assay [1] and in assay [2] was “binds” throughout.

B2: epiregulin IgG-FITC (antibody, V domains shown)
VH: QVQLQQSGAEVKKPGASVKVSCKASGFNIKDTYMHWVRQAPEQGLEWMGRIDPLNDKTKYDPKFQGRVTITADTSTNTAYLELSSLTSEDTAVYYCARGGGDPVFVYWGQGTLVTVSA
VL: DIQMTQSPSSLSASVGDRVTITCKASQDINKYLAWYQHKPGQAPRLLIHYTSTLHPGIPSRFSGSGSGTDYTFSISSLQPEDIATYYCLQYDNLRTFGGGTKVEIKR
modifications: FITC label (Fluorescein Labeling Kit-NH2); sites not stated
Regarding B2, the binding result in assay [1] and in assay [2] was “binds” each time.

B3: anti-epiregulin scFv-FITC (scFv)
scFv: QVQLQQSGAEVKKPGASVKVSCKASGFNIKDTYMHWVRQAPEQGLEWMGRIDPLNDKTKYDPKFQGRVTITADTSTNTAYLELSSLTSEDTAVYYCARGGGDPVFVYWGQGTLVTVSASSGGGGSGGGGSGGGGSGGGGSGGDIQMTQSPSSLSASVGDRVTITCKASQDINKYLAWYQHKPGQAPRLLIHYTSTLHPGIPSRFSGSGSGTDFTFSISSLQPEDIATYYCLQYDNLRTFGGGTKVEIKRTSHHHHHH
modifications: FITC label (Fluorescein Labeling Kit-NH2); sites not stated
On to B3, for which the binding result in assay [1] and in assay [2] was “binds” each time.

B4: anti-epiregulin scFv (single chain variable region antibody of anti-epiregulin antibody) (scFv)
scFv: QVQLQQSGAEVKKPGASVKVSCKASGFNIKDTYMHWVRQAPEQGLEWMGRIDPLNDKTKYDPKFQGRVTITADTSTNTAYLELSSLTSEDTAVYYCARGGGDPVFVYWGQGTLVTVSASSGGGGSGGGGSGGGGSGGGGSGGDIQMTQSPSSLSASVGDRVTITCKASQDINKYLAWYQHKPGQAPRLLIHYTSTLHPGIPSRFSGSGSGTDFTFSISSLQPEDIATYYCLQYDNLRTFGGGTKVEIKRTSHHHHHH
Take B4: the binding result in assay [3] is “binds”.
